Laboratory results from patent publication US20240141291A1, “FUNCTIONAL BRAIN REGION-SPECIFIC NEURAL SPHEROIDS AND METHODS OF USE” (THE UNITED STATES OF AMERICA, AS REPRESENTED BY THE …, priority 2021, published 2024).
At least one compound was matched to its structure with a doubt left.

Legend:
Assay type in all cases: cell-based, human
[1] = system: A53T VTA-like spheroids; assay: Parkinson's Disease model, FLIPR calcium activity after compound treatment; details: 90-min after treatment, Ropinirole 1, 3 and 10 μM
Method: Fluorescent Imaging plate Reader (FLIPR): The FLIPR Penta (Molecular Devices) was used to assess calcium fluorescence across the 384-well plate simultaneously and to observe changes after treatment with compounds. The evening before calcium activity was measured, plates were sealed with parafilm and centrifuged at 1485×g for 2-min to get spheroids to the bottom of the well in a centered position. On the day of recording, the plate used for recording was placed in the read plate position inside of the FLIPR following the 2-hour Cal6 incubation at 37° C. Standard filter sets were used for Cal6 imaging with excitation set at 470-495 and emission at 515-575 nm. Fluorescent image reads were taken every 0.6 seconds for all plates, with exposure time of 0.03 and 50% excitation intensity. Recordings from the initial seven plates consisted of 1000 reads and were 10-min recordings with 2.5 gain, while the final two plates consisted of 500 reads (5-min recordings) with a gain of 2. Baseline recordings were taken across all plates and, if applicable, more recordings were obtained 1-, 30-, 60-, and/or 90-min after compound treatment. […]
384 Pin Tool: A 384 well pin tool (Rexroth) was used to transfer compounds simultaneously to the spheroid plate. […] Compound transfer via the 384 well pin tool occurred after the baseline recordings with the fluorescent imaging plate reader (FLIPR). […]

[2] = system: PFC-like spheroids; assay: FLIPR calcium activity profiling, compound addition (Examples 1-2); details: FLIPR recordings 1-, 30-, 70-min after compound (t1, t30, t70)
Method: (§1) To examine neuronal activity changes as a response to compound treatment, calcium activity was assessed using a Fluorescent Imaging Plate Reader (FLIPR) Penta (Molecular Devices). FLIPR Calcium 6 Assay kits were purchased from Molecular Devices (PN: R8190). On day of activity profiling, 96-well or 384-well ULA round bottom (black sides, clear bottom) plates containing spheroids were removed from incubator. Fresh FLIPR Calcium 6 dye was prepared by diluting each vial in 10 ml of freshly prepared, phenol-free complete spheroid maturation media and vortexed for 2 minutes. […] After 2-hours, plates were removed and kept at room temperature for 10 minutes, then imaged and calcium activity read using the Molecular Devices FLIPR Penta High-Throughput Cellular Screening System. […] Fluorescent image reads were taken every 0.6 seconds for a total of 1000 reads over a total run time of 10 minutes. […]
(§2) The FLIPR software ScreenWorks PeakPro 2.0 was used for the initial analysis of calcium activity using automated peak detection settings. […] To assess variability of these peak parameters, percent coefficients of variance (CV) were calculated by dividing the standard deviation/mean and multiplying by 100 for each designer spheroid type, and those with % CV's […] 20% were removed from future analysis. […]

[3] = system: VTA-like spheroids; assay: as above; details: FLIPR recordings 1-, 30-, 70-min after compound (t1, t30, t70)
Method: as §1, §2

SMILES	reversal of A53T-induced deficits (peak count, peak width) [1]	effect on calcium activity peak parameters compared to DMSO controls [2]	effect on calcium activity peak parameters compared to DMSO controls [3]
CCN(CC)C(=O)/C(C#N)=C/c1cc(O)c(O)c([N+](=O)[O-])c1 [Entacapone]	only Ropinirole was found to reverse this 90-min after treatment	–	–
CN1CCc2cc(Cl)c(O)cc2[C@@H](c2ccccc2)C1 [SCH23390]	–	inhibited calcium activity that lasted throughout the entire recording period	inhibited calcium activity that lasted throughout the entire recording period
